# Measured values taken from US20140302027A1, “METHODS OF TREATING PERIODONTAL INFLAMMATION AND PERIODONTAL BONE LOSS” (United States of America as Represented by the Secretary, …, priority 2011, published 2014).
# For at least one compound, name, drawing or mass did not settle the structure.
# Tested on: ligature-induced periodontal inflammation
# Test: Ligature-induced periodontal inflammation with anti-inflammatory treatment: gingival MPO and oral anaerobic bacteria
# Format: in vivo, wild-type mice
# Conditions: 1 mg/Kg s.c. daily, 5 days, ligated 10-week-old mice
smiles,measurement,value
Cc1cnc(NC(=O)C2=C(O)c3ccccc3S(=O)(=O)N2C)s1 [meloxicam],neutrophil infiltration (gingival MPO amounts),reduced
same,oral bacterial load (oral anaerobic bacteria),reduce
